Results: paper PMC13482819
Results are given in words; binding and its absence hold for the method and conditions named. Binding seen in cells or lysates may run through a third protein. Some binding calls cover weakened binding; strength is not graded here. Sequences can lack the tags named with a protein. Each block holds one binder with its values, some of them ahead of it.

The chains behind the UniProt entries cited, without tags or fusion partners. Where a name states a change or a piece, a line headed by the entry shows the natural chain unless it says otherwise.
UniProt Q86WV6: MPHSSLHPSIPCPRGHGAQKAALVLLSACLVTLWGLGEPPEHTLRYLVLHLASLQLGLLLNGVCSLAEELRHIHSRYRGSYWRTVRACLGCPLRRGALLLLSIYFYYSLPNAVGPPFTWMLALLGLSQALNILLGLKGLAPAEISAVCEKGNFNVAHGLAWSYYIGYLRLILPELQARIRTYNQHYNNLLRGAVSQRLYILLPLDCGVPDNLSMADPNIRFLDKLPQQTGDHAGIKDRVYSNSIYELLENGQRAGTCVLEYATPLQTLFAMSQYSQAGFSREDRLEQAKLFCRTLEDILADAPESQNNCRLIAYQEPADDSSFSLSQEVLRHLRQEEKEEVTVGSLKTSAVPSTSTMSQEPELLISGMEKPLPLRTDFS

Key:
[1] = target: HA-tagged STING Y314E (phosphomimetic mutant) (human) (UniProt Q86WV6); test: co-IP; HEK293T co-transfected with tagged proteins (24 h), lysate in modified MLB buffer; IP with anti-HA; immunoblot with anti-EGFR, anti-Myc, anti-HA; HA-bait-negative controls; in some panels Flag-EGFR wild type or mEGFR co-expressed
[2] = target: HA-tagged STING Y245E (phosphomimetic mutant) (human) (UniProt Q86WV6); test: as above
[3] = target: HA-tagged STING (wild type) (human), Q86WV6; test: as above; settings: remark: other sources report otherwise
[4] = target: T1, Myc-tagged IRF3 2SA mutant (S385A/S386A) (human) (UniProt Q14653); test: co-IP; HEK293T co-transfected with Flag-tagged wild-type EGFR or mEGFR, Myc-tagged IRF3 2SA and HA-tagged TBK1, lysate in modified MLB buffer; IP with anti-Myc; immunoblot
T1 sequence: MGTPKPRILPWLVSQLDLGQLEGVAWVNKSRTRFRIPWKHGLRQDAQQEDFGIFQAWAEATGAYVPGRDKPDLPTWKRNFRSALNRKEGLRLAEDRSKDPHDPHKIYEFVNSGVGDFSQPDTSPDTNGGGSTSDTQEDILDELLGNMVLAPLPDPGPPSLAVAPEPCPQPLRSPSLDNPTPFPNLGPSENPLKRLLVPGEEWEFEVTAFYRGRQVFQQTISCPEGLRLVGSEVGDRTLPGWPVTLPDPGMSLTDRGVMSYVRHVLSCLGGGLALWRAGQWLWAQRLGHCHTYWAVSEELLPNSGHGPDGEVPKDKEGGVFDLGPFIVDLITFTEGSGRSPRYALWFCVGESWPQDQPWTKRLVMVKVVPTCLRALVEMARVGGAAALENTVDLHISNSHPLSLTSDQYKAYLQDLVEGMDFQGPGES

- binding [1]: binds
- binding [2]: binds
B1: Myc-tagged TBK1 (enzyme, UniProt Q9UHD2 1-729)
chain: MQSTSNHLWLLSDILGQGATANVFRGRHKKTGDLFAIKVFNNISFLRPVDVQMREFEVLKKLNHKNIVKLFAIEEETTTRHKVLIMEFCPCGSLYTVLEEPSNAYGLPESEFLIVLRDVVGGMNHLRENGIVHRDIKPGNIMRVIGEDGQSVYKLTDFGAARELEDDEQFVSLYGTEEYLHPDMYERAVLRKDHQKKYGATVDLWSIGVTFYHAATGSLPFRPFEGPRRNKEVMYKIITGKPSGAISGVQKAENGPIDWSGDMPVSCSLSRGLQVLLTPVLANILEADQEKCWGFDQFFAETSDILHRMVIHVFSLQQMTAHKIYIHSYNTATIFHELVYKQTKIISSNQELIYEGRRLVLEPGRLAQHFPKTTEENPIFVVSREPLNTIGLIYEKISLPKVHPRYDLDGDASMAKAITGVVCYACRIASTLLLYQELMRKGIRWLIELIKDDYNETVHKKTEVVITLDFCIRNIEKTVKVYEKLMKINLEAAELGEISDIHTKLLRLSSSQGTIETSLQDIDSRLSPGGSLADAWAHQEGTHPKDRNVEKLQVLLNCMTEIYYQFKKDKAERRLAYNEEQIHKFDKQKLYYHATKAMTHFTDECVKKYEAFLNKSEEWIRKMLHLRKQLLSLTNQCFDIEEEVSKYQEYTNELQETLPQKMFTASSGIKHTMTPIYPSSNTLVEMTLGMKKLKEEMEGVVKELAENNHILERFGSLTMDGGLRNVDCL

- binding [3]: binds
B2: Myc-tagged TBK1, Q9UHD2 1-729 (enzyme)
chain: MQSTSNHLWLLSDILGQGATANVFRGRHKKTGDLFAIKVFNNISFLRPVDVQMREFEVLKKLNHKNIVKLFAIEEETTTRHKVLIMEFCPCGSLYTVLEEPSNAYGLPESEFLIVLRDVVGGMNHLRENGIVHRDIKPGNIMRVIGEDGQSVYKLTDFGAARELEDDEQFVSLYGTEEYLHPDMYERAVLRKDHQKKYGATVDLWSIGVTFYHAATGSLPFRPFEGPRRNKEVMYKIITGKPSGAISGVQKAENGPIDWSGDMPVSCSLSRGLQVLLTPVLANILEADQEKCWGFDQFFAETSDILHRMVIHVFSLQQMTAHKIYIHSYNTATIFHELVYKQTKIISSNQELIYEGRRLVLEPGRLAQHFPKTTEENPIFVVSREPLNTIGLIYEKISLPKVHPRYDLDGDASMAKAITGVVCYACRIASTLLLYQELMRKGIRWLIELIKDDYNETVHKKTEVVITLDFCIRNIEKTVKVYEKLMKINLEAAELGEISDIHTKLLRLSSSQGTIETSLQDIDSRLSPGGSLADAWAHQEGTHPKDRNVEKLQVLLNCMTEIYYQFKKDKAERRLAYNEEQIHKFDKQKLYYHATKAMTHFTDECVKKYEAFLNKSEEWIRKMLHLRKQLLSLTNQCFDIEEEVSKYQEYTNELQETLPQKMFTASSGIKHTMTPIYPSSNTLVEMTLGMKKLKEEMEGVVKELAENNHILERFGSLTMDGGLRNVDCL

- binding [4]: binds
B3: HA-tagged TBK1 (enzyme, UniProt Q9UHD2 1-729)
chain: MQSTSNHLWLLSDILGQGATANVFRGRHKKTGDLFAIKVFNNISFLRPVDVQMREFEVLKKLNHKNIVKLFAIEEETTTRHKVLIMEFCPCGSLYTVLEEPSNAYGLPESEFLIVLRDVVGGMNHLRENGIVHRDIKPGNIMRVIGEDGQSVYKLTDFGAARELEDDEQFVSLYGTEEYLHPDMYERAVLRKDHQKKYGATVDLWSIGVTFYHAATGSLPFRPFEGPRRNKEVMYKIITGKPSGAISGVQKAENGPIDWSGDMPVSCSLSRGLQVLLTPVLANILEADQEKCWGFDQFFAETSDILHRMVIHVFSLQQMTAHKIYIHSYNTATIFHELVYKQTKIISSNQELIYEGRRLVLEPGRLAQHFPKTTEENPIFVVSREPLNTIGLIYEKISLPKVHPRYDLDGDASMAKAITGVVCYACRIASTLLLYQELMRKGIRWLIELIKDDYNETVHKKTEVVITLDFCIRNIEKTVKVYEKLMKINLEAAELGEISDIHTKLLRLSSSQGTIETSLQDIDSRLSPGGSLADAWAHQEGTHPKDRNVEKLQVLLNCMTEIYYQFKKDKAERRLAYNEEQIHKFDKQKLYYHATKAMTHFTDECVKKYEAFLNKSEEWIRKMLHLRKQLLSLTNQCFDIEEEVSKYQEYTNELQETLPQKMFTASSGIKHTMTPIYPSSNTLVEMTLGMKKLKEEMEGVVKELAENNHILERFGSLTMDGGLRNVDCL
